In patent publication US20170233472A1:
No constants are given. Whether binding was seen depends on the method and setting. Some binding calls cover weakened binding; strength is not graded here.

Sequences of proteins named here, by UniProt entry; tags and fusion partners are left off. A change or cut given only in a name is not applied to a line headed by its entry.
UniProt Q01973: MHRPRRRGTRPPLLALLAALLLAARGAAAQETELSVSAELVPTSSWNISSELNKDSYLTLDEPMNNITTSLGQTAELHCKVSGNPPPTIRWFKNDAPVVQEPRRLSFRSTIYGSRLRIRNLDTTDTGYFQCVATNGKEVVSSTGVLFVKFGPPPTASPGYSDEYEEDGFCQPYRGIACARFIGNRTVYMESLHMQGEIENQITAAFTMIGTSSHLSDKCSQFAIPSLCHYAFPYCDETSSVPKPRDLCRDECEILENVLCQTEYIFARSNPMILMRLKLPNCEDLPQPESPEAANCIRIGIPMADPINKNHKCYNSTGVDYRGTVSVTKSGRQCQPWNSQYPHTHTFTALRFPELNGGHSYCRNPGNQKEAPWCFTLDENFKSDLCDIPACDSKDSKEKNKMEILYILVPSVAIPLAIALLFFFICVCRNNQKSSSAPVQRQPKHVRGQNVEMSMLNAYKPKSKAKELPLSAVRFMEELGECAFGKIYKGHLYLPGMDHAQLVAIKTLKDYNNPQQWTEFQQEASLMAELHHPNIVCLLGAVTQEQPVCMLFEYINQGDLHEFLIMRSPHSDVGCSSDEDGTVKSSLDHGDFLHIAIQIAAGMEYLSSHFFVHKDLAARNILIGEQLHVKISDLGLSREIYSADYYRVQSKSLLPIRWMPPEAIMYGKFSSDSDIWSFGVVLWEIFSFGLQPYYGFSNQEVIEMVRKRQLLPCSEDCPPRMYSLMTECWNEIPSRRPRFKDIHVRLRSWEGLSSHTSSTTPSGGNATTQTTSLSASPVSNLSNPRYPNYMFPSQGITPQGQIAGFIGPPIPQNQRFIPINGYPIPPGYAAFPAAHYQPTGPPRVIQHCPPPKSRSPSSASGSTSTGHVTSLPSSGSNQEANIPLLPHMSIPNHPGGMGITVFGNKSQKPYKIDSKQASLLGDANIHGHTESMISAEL

Target: His-tagged soluble human ROR1 (shROR1-His) (human) (UniProt Q01973)
Test: ELISA, plate-coated shROR1-His, relative to DART-1

Binder | binding
DART-4 (bispecific antibody) chain 1: QLVLTQSPSASASLGGSVKLTCTLSSGHKTDTIDWYQQQPGKAPRYLMKLEGSGSYNKGSGVPDRFGSGSSSGADRYLTISSLQSEDEADYYCGTDYPGNYLFGGGTQLTVLGGGGSGGGGEVQLVESGGGLVQPGGSLRLSCAASGFTFSTYAMNWVRQAPGKGLEWVGRIRSKYNNYATYYADSVKGRFTISRDDSKNSLYLQMNSLKTEDTAVYYCVRHGNFGNSYVSWFAYWGQGTLVTVSSGGCGGGKVAALKEKVAALKEKVAALKEKVAALKE chain 2: QAVVTQEPSLTVSPGGTVTLTCRSSTGAVTTSNYANWVQQKPGQAPRGLIGGTNKRAPWTPARFSGSLLGGKAALTITGAQAEDEADYYCALWYSNLWVFGGGTKLTVLGGGGSGGGGQEQLVESGGGLVQPGGSLRLSCAASGFTFSDYYMSWVRQAPGKGLEWVATIYPSSGKTYYADSVKGRFTISSDNAKNSLYLQMNSLRAEDTAVYYCARDSYADDAALFDIWGQGTTVTVSSGGCGGGEVAALEKEVAALEKEVAALEKEVAALEK | binds
DART-5 (bispecific antibody) chain 1: QLVLTQSPSASASLGSSVKLTCTLSSGHKTDTIDWYQQQPGKAPRYLMKLEGSGSYSKGSGVPDRFGSGSSSGADRYLTISSLQSEDEADYYCGTDYPGNYLFGGGTQLTVLGGGGSGGGGEVQLVESGGGLVQPGGSLRLSCAASGFTFSTYAMNWVRQAPGKGLEWVGRIRSKYNNYATYYADSVKGRFTISRDDSKNSLYLQMNSLKTEDTAVYYCVRHGNFGNSYVSWFAYWGQGTLVTVSSGGCGGGKVAALKEKVAALKEKVAALKEKVAALKE chain 2: QAVVTQEPSLTVSPGGTVTLTCRSSTGAVTTSNYANWVQQKPGQAPRGLIGGTNKRAPWTPARFSGSLLGGKAALTITGAQAEDEADYYCALWYSNLWVFGGGTKLTVLGGGGSGGGGQEQLVESGGGLVQPGGSLRLSCAASGFTFSDYYMSWVRQAPGKGLEWVATIYPSSGKTYYADSVKGRFTISSDNAKNSLYLQMNSLRAEDTAVYYCARDSYADDAALFDIWGQGTTVTVSSGGCGGGEVAALEKEVAALEKEVAALEKEVAALEK | binds
DART-6 (bispecific antibody) chain 1: QLVLTQSPSASASLGSSVKLTCTLSSGHKTDTIDWYQQQPGKAPRYLMKLEGSGSYNKGSGVPDRFGSGISSGADRYLTISSLQSEDEADYYCGTDYPGNYLFGGGTQLTVLGGGGSGGGGEVQLVESGGGLVQPGGSLRLSCAASGFTFSTYAMNWVRQAPGKGLEWVGRIRSKYNNYATYYADSVKGRFTISRDDSKNSLYLQMNSLKTEDTAVYYCVRHGNFGNSYVSWFAYWGQGTLVTVSSGGCGGGKVAALKEKVAALKEKVAALKEKVAALKE chain 2: QAVVTQEPSLTVSPGGTVTLTCRSSTGAVTTSNYANWVQQKPGQAPRGLIGGTNKRAPWTPARFSGSLLGGKAALTITGAQAEDEADYYCALWYSNLWVFGGGTKLTVLGGGGSGGGGQEQLVESGGGLVQPGGSLRLSCAASGFTFSDYYMSWVRQAPGKGLEWVATIYPSSGKTYYADSVKGRFTISSDNAKNSLYLQMNSLRAEDTAVYYCARDSYADDAALFDIWGQGTTVTVSSGGCGGGEVAALEKEVAALEKEVAALEKEVAALEK | binds
DART-7 (bispecific antibody) chain 1: QLVLTQSPSASASLGSSVILTCTLSSGHKTDTIDWYQQQPGKAPRYLMKLEGSGSYNKGSGVPDRFGSGSSSGADRYLTISSLQSEDEADYYCGTDYPGNYLFGGGTQLTVLGGGGSGGGGEVQLVESGGGLVQPGGSLRLSCAASGFTFSTYAMNWVRQAPGKGLEWVGRIRSKYNNYATYYADSVKGRFTISRDDSKNSLYLQMNSLKTEDTAVYYCVRHGNFGNSYVSWFAYWGQGTLVTVSSGGCGGGKVAALKEKVAALKEKVAALKEKVAALKE chain 2: QAVVTQEPSLTVSPGGTVTLTCRSSTGAVTTSNYANWVQQKPGQAPRGLIGGTNKRAPWTPARFSGSLLGGKAALTITGAQAEDEADYYCALWYSNLWVFGGGTKLTVLGGGGSGGGGQEQLVESGGGLVQPGGSLRLSCAASGFTFSDYYMSWVRQAPGKGLEWVATIYPSSGKTYYADSVKGRFTISSDNAKNSLYLQMNSLRAEDTAVYYCARDSYADDAALFDIWGQGTTVTVSSGGCGGGEVAALEKEVAALEKEVAALEKEVAALEK | binds
DART-8 (bispecific antibody) chain 1: QLVLTQSPSASASLGSSVNLTCTLSSGHKTDTIDWYQQQPGKAPRYLMKLEGSGSYNKGSGVPDRFGSGSSSGADRYLTISSLQSEDEADYYCGTDYPGNYLFGGGTQLTVLGGGGSGGGGEVQLVESGGGLVQPGGSLRLSCAASGFTFSTYAMNWVRQAPGKGLEWVGRIRSKYNNYATYYADSVKGRFTISRDDSKNSLYLQMNSLKTEDTAVYYCVRHGNFGNSYVSWFAYWGQGTLVTVSSGGCGGGKVAALKEKVAALKEKVAALKEKVAALKE chain 2: QAVVTQEPSLTVSPGGTVTLTCRSSTGAVTTSNYANWVQQKPGQAPRGLIGGTNKRAPWTPARFSGSLLGGKAALTITGAQAEDEADYYCALWYSNLWVFGGGTKLTVLGGGGSGGGGQEQLVESGGGLVQPGGSLRLSCAASGFTFSDYYMSWVRQAPGKGLEWVATIYPSSGKTYYADSVKGRFTISSDNAKNSLYLQMNSLRAEDTAVYYCARDSYADDAALFDIWGQGTTVTVSSGGCGGGEVAALEKEVAALEKEVAALEKEVAALEK | binds
DART-9 (bispecific antibody) chain 1: QLVLTQSPSASASLGSSVKLTCTLSSGHKTDTIDWYQQQPGKAPRYLMKLEGSGSYTKGSGVPDRFGSGSSSGADRYLTISSLQSEDEADYYCGTDYPGNYLFGGGTQLTVLGGGGSGGGGEVQLVESGGGLVQPGGSLRLSCAASGFTFSTYAMNWVRQAPGKGLEWVGRIRSKYNNYATYYADSVKGRFTISRDDSKNSLYLQMNSLKTEDTAVYYCVRHGNFGNSYVSWFAYWGQGTLVTVSSGGCGGGKVAALKEKVAALKEKVAALKEKVAALKE chain 2: QAVVTQEPSLTVSPGGTVTLTCRSSTGAVTTSNYANWVQQKPGQAPRGLIGGTNKRAPWTPARFSGSLLGGKAALTITGAQAEDEADYYCALWYSNLWVFGGGTKLTVLGGGGSGGGGQEQLVESGGGLVQPGGSLRLSCAASGFTFSDYYMSWVRQAPGKGLEWVATIYPSSGKTYYADSVKGRFTISSDNAKNSLYLQMNSLRAEDTAVYYCARDSYADDAALFDIWGQGTTVTVSSGGCGGGEVAALEKEVAALEKEVAALEKEVAALEK | binds
DART-10 (bispecific antibody) chain 1: QLVLTQSPSASASLGSSVKLTCTLSSGHKTDTIDWYQQQPGKAPRYLMKLEGSGSYNKGSGVPDRFGSGSSSGADRYLTISSLQSEDEADYYCGTDNPGNYLFGGGTQLTVLGGGGSGGGGEVQLVESGGGLVQPGGSLRLSCAASGFTFSTYAMNWVRQAPGKGLEWVGRIRSKYNNYATYYADSVKGRFTISRDDSKNSLYLQMNSLKTEDTAVYYCVRHGNFGNSYVSWFAYWGQGTLVTVSSGGCGGGKVAALKEKVAALKEKVAALKEKVAALKE chain 2: QAVVTQEPSLTVSPGGTVTLTCRSSTGAVTTSNYANWVQQKPGQAPRGLIGGTNKRAPWTPARFSGSLLGGKAALTITGAQAEDEADYYCALWYSNLWVFGGGTKLTVLGGGGSGGGGQEQLVESGGGLVQPGGSLRLSCAASGFTFSDYYMSWVRQAPGKGLEWVATIYPSSGKTYYADSVKGRFTISSDNAKNSLYLQMNSLRAEDTAVYYCARDSYADDAALFDIWGQGTTVTVSSGGCGGGEVAALEKEVAALEKEVAALEKEVAALEK | binds
DART-11 (bispecific antibody) chain 1: QLVLTQSPSASASLGSSVKLTCTLSSGHKTDTIDWYQQQPGKAPRYLMKLEGSGSYNKGSGVPDRFGSGSSSGADWYLTISSLQSEDEADYYCGTDNPGNYLFGGGTQLTVLGGGGSGGGGEVQLVESGGGLVQPGGSLRLSCAASGFTFSTYAMNWVRQAPGKGLEWVGRIRSKYNNYATYYADSVKGRFTISRDDSKNSLYLQMNSLKTEDTAVYYCVRHGNFGNSYVSWFAYWGQGTLVTVSSGGCGGGKVAALKEKVAALKEKVAALKEKVAALKE chain 2: QAVVTQEPSLTVSPGGTVTLTCRSSTGAVTTSNYANWVQQKPGQAPRGLIGGTNKRAPWTPARFSGSLLGGKAALTITGAQAEDEADYYCALWYSNLWVFGGGTKLTVLGGGGSGGGGQEQLVESGGGLVQPGGSLRLSCAASGFTFSDYYMSWVRQAPGKGLEWVATIYPSSGKTYYADSVKGRFTISSDNAKNSLYLQMNSLRAEDTAVYYCARDSYADDAALFDIWGQGTTVTVSSGGCGGGEVAALEKEVAALEKEVAALEKEVAALEK | binds
DART-2 (bispecific antibody) chain 1: QLVLTQSPSASASLGSSVKLTCTLSSGHKTDTIDWYQQQPGKAPRYLMKLEGSGSYNKGSGVPDRFGSGSSSGADWYLTISSLQSEDEADYYCGTDYPGNYLFGGGTQLTVLGGGGSGGGGEVQLVESGGGLVQPGGSLRLSCAASGFTFSTYAMNWVRQAPGKGLEWVGRIRSKYNNYATYYADSVKGRFTISRDDSKNSLYLQMNSLKTEDTAVYYCVRHGNFGNSYVSWFAYWGQGTLVTVSSGGCGGGKVAALKEKVAALKEKVAALKEKVAALKE chain 2: QAVVTQEPSLTVSPGGTVTLTCRSSTGAVTTSNYANWVQQKPGQAPRGLIGGTNKRAPWTPARFSGSLLGGKAALTITGAQAEDEADYYCALWYSNLWVFGGGTKLTVLGGGGSGGGGQEQLVESGGGLVQPGGSLRLSCAASGFTFSDYYMSWVRQAPGKGLEWVATIYPSSGKTYYADSVKGRFTISSDNAKNSLYLQMNSLRAEDTAVYYCARDSYADDAALFDIWGQGTTVTVSSGGCGGGEVAALEKEVAALEKEVAALEKEVAALEK | binds
DART-14 (bispecific antibody) chain 1: QLVLTQSPSASASLGSSVKLTCTLSSGHKTDTIDWYQQQPGKAPRYLMKLEGSGSYNKGSGVPDRFGSGSSSGADRYLTISSLQSEDEADYYCGTDYPGNYLFGGGTQLTVLGGGGSGGGGEVQLVESGGGLVQPGGSLRLSCAASGFTFSTYAMNWVRQAPGKGLEWVGRIRSKYNNYATYYADSVKGRFTISRDDSKNSLYLQMNSLKTEDTAVYYCVRHGNFGNSYVSWFAYWGQGTLVTVSSGGCGGGKVAALKEKVAALKEKVAALKEKVAALKE chain 2: QAVVTQEPSLTVSPGGTVTLTCRSSTGAVTTSNYANWVQQKPGQAPRGLIGGTNKRAPWTPARFSGSLLGGKAALTITGAQAEDEADYYCALWYSNLWVFGGGTKLTVLGGGGSGGGGQEQLVESGGGLVQPGGSLRLSCAASGFTFSDYYMSWVRQAPGKGLEWVATIYPSSGKTYYADSVKGRLTISSDNAKNSLYLQMNSLRAEDTAVYYCARDSYADDAALFDIWGQGTTVTVSSGGCGGGEVAALEKEVAALEKEVAALEKEVAALEK | binds
